Laboratory results as given in the supplement of paper PMC12823440, “Inhibitors supercharge kinase turnover through native proteolytic circuits” (Nature, 2025).
Counter-ions that a name gives are not always drawn. The list shows a part of the results. Hit calls seldom repeat between salt and free forms of one compound.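 Kinases were expressed as nanoluciferase fusions in K562 cells and luminescence was read every 4 h between 2 and 18 h as percent of control, DMSO set to 100% and a positive control to 0%. A time point counts as decreased when the signal drops significantly (2 sigma). The hit call is the authors' own, does not follow from the count of time points alone, and its rule is not shown.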

Protein sequences, listed by entry. Tags and fused reporters are not part of them. Lines headed by an entry give the natural chain unless they say otherwise; changes in a name come on top.
UniProt Q9Y616: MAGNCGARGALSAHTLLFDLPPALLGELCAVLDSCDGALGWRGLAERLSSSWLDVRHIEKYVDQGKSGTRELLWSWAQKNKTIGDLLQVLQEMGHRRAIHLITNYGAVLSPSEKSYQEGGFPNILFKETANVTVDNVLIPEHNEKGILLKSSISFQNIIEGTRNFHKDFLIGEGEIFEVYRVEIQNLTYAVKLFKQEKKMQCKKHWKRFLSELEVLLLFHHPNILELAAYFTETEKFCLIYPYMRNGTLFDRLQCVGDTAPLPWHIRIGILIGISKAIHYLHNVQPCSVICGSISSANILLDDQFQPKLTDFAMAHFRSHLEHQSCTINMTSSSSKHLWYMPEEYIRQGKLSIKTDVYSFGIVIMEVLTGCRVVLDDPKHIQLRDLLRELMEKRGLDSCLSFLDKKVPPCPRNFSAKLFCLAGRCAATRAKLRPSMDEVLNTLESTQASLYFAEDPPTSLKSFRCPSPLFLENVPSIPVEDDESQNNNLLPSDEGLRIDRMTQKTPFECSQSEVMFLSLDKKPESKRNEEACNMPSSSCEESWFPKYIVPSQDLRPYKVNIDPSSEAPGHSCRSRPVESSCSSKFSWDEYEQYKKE
UniProt P23458: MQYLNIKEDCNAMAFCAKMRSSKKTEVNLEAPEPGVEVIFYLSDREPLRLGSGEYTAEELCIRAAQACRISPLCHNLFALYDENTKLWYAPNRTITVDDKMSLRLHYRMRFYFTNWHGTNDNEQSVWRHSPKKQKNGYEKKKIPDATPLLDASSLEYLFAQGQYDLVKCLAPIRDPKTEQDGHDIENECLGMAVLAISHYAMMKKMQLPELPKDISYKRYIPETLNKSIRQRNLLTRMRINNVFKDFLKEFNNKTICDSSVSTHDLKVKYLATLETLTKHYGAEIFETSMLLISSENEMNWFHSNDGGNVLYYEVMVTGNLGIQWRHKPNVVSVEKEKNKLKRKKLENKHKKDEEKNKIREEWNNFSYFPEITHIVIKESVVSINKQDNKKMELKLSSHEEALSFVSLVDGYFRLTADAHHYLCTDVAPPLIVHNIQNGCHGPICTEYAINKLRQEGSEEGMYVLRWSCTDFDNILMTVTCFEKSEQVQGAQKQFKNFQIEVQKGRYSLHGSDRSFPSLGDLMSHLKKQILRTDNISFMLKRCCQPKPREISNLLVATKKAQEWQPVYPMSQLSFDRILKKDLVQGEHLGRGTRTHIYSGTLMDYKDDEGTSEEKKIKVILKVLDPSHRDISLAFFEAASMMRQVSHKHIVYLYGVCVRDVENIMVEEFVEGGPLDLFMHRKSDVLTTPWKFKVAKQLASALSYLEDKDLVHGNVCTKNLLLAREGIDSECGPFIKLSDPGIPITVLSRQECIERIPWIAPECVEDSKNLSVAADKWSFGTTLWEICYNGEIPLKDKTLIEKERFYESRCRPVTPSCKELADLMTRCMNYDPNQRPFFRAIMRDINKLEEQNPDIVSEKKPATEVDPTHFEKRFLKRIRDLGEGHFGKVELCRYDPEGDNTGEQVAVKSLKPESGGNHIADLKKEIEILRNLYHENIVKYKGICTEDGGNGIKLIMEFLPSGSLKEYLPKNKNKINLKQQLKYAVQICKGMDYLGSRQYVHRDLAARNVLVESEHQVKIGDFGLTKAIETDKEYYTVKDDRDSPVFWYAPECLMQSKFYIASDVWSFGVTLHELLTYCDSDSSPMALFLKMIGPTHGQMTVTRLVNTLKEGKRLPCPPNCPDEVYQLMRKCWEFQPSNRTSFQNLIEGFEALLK
UniProt P06239: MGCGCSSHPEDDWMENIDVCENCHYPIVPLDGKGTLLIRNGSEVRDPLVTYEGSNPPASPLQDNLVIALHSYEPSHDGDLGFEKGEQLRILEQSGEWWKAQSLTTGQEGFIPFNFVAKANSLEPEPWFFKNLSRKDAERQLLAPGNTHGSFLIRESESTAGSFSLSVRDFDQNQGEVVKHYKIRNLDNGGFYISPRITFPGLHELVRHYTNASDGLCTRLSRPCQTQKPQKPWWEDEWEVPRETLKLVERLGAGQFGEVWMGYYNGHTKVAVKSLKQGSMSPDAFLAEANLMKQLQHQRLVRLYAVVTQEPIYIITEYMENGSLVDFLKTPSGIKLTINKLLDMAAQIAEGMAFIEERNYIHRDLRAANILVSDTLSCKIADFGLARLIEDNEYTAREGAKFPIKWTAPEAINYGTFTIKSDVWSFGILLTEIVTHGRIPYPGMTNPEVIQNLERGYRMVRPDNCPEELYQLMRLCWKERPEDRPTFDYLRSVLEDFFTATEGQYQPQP
UniProt P53667: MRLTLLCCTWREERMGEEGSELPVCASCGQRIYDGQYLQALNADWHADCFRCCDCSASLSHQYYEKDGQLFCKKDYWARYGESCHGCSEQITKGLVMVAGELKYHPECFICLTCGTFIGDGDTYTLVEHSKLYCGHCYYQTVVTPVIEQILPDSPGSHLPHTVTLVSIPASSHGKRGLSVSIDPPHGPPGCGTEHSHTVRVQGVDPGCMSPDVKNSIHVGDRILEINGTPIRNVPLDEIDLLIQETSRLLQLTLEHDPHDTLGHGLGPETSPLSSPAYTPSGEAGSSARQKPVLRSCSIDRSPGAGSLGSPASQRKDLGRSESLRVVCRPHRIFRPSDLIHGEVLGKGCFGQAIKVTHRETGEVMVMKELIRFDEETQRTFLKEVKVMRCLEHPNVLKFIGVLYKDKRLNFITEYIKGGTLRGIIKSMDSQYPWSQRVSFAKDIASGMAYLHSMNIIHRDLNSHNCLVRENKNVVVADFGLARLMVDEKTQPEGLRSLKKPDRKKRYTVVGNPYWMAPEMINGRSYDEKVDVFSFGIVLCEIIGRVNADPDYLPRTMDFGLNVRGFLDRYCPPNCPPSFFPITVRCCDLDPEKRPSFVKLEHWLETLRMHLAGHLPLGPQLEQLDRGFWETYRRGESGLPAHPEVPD
UniProt P53671: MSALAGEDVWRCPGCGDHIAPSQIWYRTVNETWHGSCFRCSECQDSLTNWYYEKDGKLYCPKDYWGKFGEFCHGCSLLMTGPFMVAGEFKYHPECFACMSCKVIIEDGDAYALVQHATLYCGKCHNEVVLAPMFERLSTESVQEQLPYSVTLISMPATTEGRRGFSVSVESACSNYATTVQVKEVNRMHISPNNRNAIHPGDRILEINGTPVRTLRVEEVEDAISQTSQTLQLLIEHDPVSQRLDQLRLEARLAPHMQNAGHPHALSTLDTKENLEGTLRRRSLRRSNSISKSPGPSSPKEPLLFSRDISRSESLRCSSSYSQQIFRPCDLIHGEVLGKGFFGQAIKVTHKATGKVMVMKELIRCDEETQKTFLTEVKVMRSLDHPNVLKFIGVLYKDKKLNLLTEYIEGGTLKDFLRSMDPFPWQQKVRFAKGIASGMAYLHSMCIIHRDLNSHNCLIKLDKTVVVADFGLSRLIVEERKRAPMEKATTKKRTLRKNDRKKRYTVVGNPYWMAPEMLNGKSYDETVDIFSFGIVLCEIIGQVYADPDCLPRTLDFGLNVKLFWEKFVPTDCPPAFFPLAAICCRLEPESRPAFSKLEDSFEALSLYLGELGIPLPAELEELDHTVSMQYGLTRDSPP
UniProt Q8IWU2: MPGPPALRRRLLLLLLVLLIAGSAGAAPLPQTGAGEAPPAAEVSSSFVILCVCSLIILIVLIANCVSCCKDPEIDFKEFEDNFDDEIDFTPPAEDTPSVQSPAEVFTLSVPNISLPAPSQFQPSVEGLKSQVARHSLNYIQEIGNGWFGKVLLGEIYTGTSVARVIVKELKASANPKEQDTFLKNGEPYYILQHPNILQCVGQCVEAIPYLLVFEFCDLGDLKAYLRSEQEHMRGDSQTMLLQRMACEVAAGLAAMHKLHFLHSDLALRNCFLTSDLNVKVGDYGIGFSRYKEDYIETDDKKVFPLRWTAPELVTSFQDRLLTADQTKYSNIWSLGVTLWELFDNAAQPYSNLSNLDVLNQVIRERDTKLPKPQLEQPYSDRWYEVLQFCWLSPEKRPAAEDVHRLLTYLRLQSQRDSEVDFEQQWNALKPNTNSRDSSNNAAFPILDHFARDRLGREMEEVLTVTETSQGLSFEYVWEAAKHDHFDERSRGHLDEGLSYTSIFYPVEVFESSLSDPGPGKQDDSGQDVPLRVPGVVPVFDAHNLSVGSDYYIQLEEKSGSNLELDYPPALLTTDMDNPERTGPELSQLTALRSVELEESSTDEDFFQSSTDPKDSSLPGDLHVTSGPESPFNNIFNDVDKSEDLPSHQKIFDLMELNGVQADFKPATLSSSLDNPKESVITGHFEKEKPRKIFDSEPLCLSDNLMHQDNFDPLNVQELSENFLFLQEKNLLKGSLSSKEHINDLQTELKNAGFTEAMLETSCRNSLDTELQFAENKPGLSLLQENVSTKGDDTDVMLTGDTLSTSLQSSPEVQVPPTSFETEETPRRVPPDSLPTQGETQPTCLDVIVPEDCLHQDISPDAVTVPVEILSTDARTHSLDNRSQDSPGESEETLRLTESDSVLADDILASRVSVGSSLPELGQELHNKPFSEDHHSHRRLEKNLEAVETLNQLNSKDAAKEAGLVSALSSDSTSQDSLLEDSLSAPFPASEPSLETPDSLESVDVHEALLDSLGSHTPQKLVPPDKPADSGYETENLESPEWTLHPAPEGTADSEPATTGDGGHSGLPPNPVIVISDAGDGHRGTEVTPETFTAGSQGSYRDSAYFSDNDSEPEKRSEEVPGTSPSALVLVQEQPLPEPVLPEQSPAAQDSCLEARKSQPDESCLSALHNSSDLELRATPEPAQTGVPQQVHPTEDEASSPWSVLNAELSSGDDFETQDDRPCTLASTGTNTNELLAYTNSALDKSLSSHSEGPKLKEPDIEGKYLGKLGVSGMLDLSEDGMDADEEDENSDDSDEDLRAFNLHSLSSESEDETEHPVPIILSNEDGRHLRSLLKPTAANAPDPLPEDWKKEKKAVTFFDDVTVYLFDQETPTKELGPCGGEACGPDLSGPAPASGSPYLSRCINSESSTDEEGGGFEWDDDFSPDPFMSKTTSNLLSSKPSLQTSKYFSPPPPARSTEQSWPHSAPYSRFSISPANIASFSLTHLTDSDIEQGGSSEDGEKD
UniProt P07948: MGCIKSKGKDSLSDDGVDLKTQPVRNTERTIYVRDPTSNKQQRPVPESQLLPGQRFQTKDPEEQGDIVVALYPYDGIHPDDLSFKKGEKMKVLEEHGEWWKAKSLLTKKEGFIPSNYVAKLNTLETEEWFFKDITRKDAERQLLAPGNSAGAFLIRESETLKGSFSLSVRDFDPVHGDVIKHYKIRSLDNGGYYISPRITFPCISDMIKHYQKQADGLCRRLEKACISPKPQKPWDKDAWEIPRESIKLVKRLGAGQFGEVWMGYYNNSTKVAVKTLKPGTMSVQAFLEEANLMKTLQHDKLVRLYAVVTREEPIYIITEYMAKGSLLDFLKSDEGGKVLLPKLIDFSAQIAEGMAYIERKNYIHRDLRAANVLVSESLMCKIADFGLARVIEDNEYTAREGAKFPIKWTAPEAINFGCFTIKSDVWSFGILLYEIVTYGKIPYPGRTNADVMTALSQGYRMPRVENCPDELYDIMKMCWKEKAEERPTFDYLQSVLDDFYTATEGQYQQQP
UniProt Q12851: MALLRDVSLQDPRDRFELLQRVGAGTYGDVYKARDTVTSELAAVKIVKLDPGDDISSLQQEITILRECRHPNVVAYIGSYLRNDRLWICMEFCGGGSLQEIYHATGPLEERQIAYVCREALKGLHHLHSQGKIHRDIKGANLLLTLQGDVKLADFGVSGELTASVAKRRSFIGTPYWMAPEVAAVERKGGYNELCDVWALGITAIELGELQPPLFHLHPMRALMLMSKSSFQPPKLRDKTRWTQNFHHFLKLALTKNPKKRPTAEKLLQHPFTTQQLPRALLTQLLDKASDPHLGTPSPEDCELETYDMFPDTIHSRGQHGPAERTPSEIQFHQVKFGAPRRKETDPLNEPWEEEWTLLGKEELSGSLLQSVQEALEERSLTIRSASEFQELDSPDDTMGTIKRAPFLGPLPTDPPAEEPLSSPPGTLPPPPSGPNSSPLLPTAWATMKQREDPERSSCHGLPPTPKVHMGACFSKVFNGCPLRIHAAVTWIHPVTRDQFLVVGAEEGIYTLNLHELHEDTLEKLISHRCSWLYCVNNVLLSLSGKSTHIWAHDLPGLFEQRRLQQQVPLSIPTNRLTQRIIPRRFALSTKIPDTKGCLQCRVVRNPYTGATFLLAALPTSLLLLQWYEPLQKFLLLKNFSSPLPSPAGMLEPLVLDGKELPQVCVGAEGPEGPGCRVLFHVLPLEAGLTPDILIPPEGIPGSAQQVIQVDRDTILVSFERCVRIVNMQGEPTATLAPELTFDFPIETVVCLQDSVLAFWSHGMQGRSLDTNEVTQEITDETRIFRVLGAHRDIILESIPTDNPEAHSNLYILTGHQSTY

Tests used:
Experiment in all cases: kinase-Nluc reporter destabilization hit call (1 = scored as downregulated) (binary); higher = compound decreases kinase abundance
Settings in all cases: K562; 2-18 h
[1] = biological target: IRAK3 (UniProt Q9Y616)
[2] = biological target: JAK1 (UniProt P23458)
[3] = biological target: LCK (UniProt P06239)
[4] = biological target: LIMK1 (UniProt P53667)
[5] = biological target: LIMK2 (UniProt P53671)
[6] = biological target: LMTK2 (UniProt Q8IWU2)
[7] = biological target: LYN (UniProt P07948)
[8] = biological target: MAP2K1 (UniProt Q02750)
[9] = biological target: MAP2K2 (UniProt P36507)
[10] = biological target: MAP4K2 (UniProt Q12851)

Measured: kinase-Nluc reporter destabilization hit call

CC(=O)O/N=C1/C(c2c(O)[nH]c3cc(Br)ccc23)=Nc2ccccc21 [BIO-acetoxime] (10 µM)
inactive: [1] 0 | [2] 0 | [3] 0 | [4] 0 | [5] 0 | [6] 0 | [7] 0 | [8] 0 | [9] 0 | [10] 0

Cc1ccc(NC(=O)N2CCN(c3nc(N)nc4sc(-c5cccnc5)nc34)CC2)cc1 [PI4KIII beta inhibitor 3] (10 µM)
inactive: [1] 0 | [2] 0 | [3] 0 | [4] 0 | [5] 0 | [6] 0 | [7] 0 | [8] 0 | [9] 0 | [10] 0

Cc1n[nH]c2ncc(C(=O)N3CCC[C@H]3c3ccc(Cl)cc3)cc12 (10 µM)
inactive: [1] 0 | [2] 0 | [3] 0 | [4] 0 | [5] 0 | [6] 0 | [7] 0 | [8] 0 | [9] 0 | [10] 0

Cc1cnc(Cl)nc1-c1ccc(N(Cc2ccc(CNC(=O)C(F)F)cc2)C(=O)c2ccc(O)cc2O)cc1 (10 µM)
inactive: [1] 0 | [2] 0 | [3] 0 | [4] 0 | [5] 0 | [6] 0 | [7] 0 | [8] 0 | [9] 0 | [10] 0

CC(C)n1cnc2c(Nc3cccc(Cl)c3)nc(N[C@H]3CCCC[C@@H]3N)nc21 (2.5 µM)
inactive: [1] 0 | [2] 0 | [3] 0 | [4] 0 | [5] 0 | [6] 0 | [7] 0 | [8] 0 | [9] 0 | [10] 0

Gathered by group: the entries above containing an NH in an aromatic ring (2)
CC(=O)O/N=C1/C(c2c(O)[nH]c3cc(Br)ccc23)=Nc2ccccc21 [BIO-acetoxime] (10 µM)
inactive: [1] 0 | [2] 0 | [3] 0 | [4] 0 | [5] 0 | [6] 0 | [7] 0 | [8] 0 | [9] 0 | [10] 0

Cc1n[nH]c2ncc(C(=O)N3CCC[C@H]3c3ccc(Cl)cc3)cc12 (10 µM)
inactive: [1] 0 | [2] 0 | [3] 0 | [4] 0 | [5] 0 | [6] 0 | [7] 0 | [8] 0 | [9] 0 | [10] 0

Later entries

COc1ccc(CCNCc2ccc(OCc3ccc(Cl)nc3)c(OC)c2)cc1OC [SBE13 (Hydrochloride)] (10 µM)
inactive: [1] 0 | [2] 0 | [3] 0 | [4] 0 | [5] 0 | [6] 0 | [7] 0 | [8] 0 | [9] 0 | [10] 0

Nc1[nH]nc2nnc(-c3c(-c4ccccc4)nn4ccccc34)cc12 (10 µM)
inactive: [1] 0 | [2] 0 | [3] 0 | [4] 0 | [5] 0 | [6] 0 | [7] 0 | [8] 0 | [9] 0 | [10] 0

O=C(Nc1ccnc(NC(=O)C2CC2)c1)c1c(Cl)cccc1Cl (10 µM)
inactive: [1] 0 | [2] 0 | [3] 0 | [4] 0 | [5] 0 | [6] 0 | [7] 0 | [8] 0 | [9] 0 | [10] 0

Nc1ccc(-c2nc3ccc(-c4nc5ccc(N)cc5[nH]4)cc3[nH]2)cc1 (10 µM)
inactive: [1] 0 | [2] 0 | [3] 0 | [4] 0 | [5] 0 | [6] 0 | [7] 0 | [8] 0 | [9] 0 | [10] 0

Nc1ccc(-c2cccc(C(=O)Nc3cnc4nc(N5CCOCC5)oc4c3)n2)cn1 (10 µM)
inactive: [1] 0 | [2] 0 | [3] 0 | [4] 0 | [5] 0 | [6] 0 | [7] 0 | [8] 0 | [9] 0 | [10] 0

CO[C@]1(C(=O)N[C@@H](C)c2ccc(-n3cc(F)cn3)nc2)CC[C@H](c2nc(C)cc(Nc3cc(C)[nH]n3)n2)CC1 [Pralsetinib] (10 µM)
inactive: [1] 0 | [2] 0 | [3] 0 | [4] 0 | [5] 0 | [6] 0 | [7] 0 | [8] 0 | [9] 0 | [10] 0

COc1c(O)cc(O)c2c(=O)cc(-c3ccccc3)oc12 [Wogonin] (10 µM)
inactive: [1] 0 | [2] 0 | [3] 0 | [4] 0 | [5] 0 | [6] 0 | [7] 0 | [8] 0 | [9] 0 | [10] 0

Cn1cc(C2=C(c3ccc(Cl)cc3Cl)C(=O)NC2=O)c2ccccc21 (10 µM)
inactive: [1] 0 | [2] 0 | [3] 0 | [4] 0 | [5] 0 | [6] 0 | [7] 0 | [8] 0 | [9] 0 | [10] 0

O=C(O)/C=C(\CCc1ccc(Cl)cc1)c1ccccc1 (10 µM)
inactive: [1] 0 | [2] 0 | [3] 0 | [4] 0 | [5] 0 | [6] 0 | [7] 0 | [8] 0 | [9] 0 | [10] 0

CNCc1ccccc1Sc1cccc2ccccc12 [IFN alpha-IFNAR-IN-1 (hydrochloride)] (10 µM)
inactive: [1] 0 | [2] 0 | [3] 0 | [4] 0 | [5] 0 | [6] 0 | [7] 0 | [8] 0 | [9] 0 | [10] 0

S=C(NCc1ccc2c(c1)OCO2)N1CCN(c2ncnc3c2oc2ccccc23)CC1 [Amuvatinib] (2.5 µM)
inactive: [1] 0 | [2] 0 | [3] 0 | [4] 0 | [5] 0 | [6] 0 | [7] 0 | [8] 0 | [9] 0 | [10] 0

O=CN1CCN(c2ccc(C=C3C(=O)Nc4ccccc43)cc2)CC1 (10 µM)
inactive: [1] 0 | [2] 0 | [3] 0 | [4] 0 | [5] 0 | [6] 0 | [7] 0 | [8] 0 | [9] 0 | [10] 0

O=C1Cc2ccccc2N1 [Oxindole] (10 µM)
inactive: [1] 0 | [2] 0 | [3] 0 | [4] 0 | [5] 0 | [6] 0 | [7] 0 | [8] 0 | [9] 0 | [10] 0

CC(C1CC1)n1cnc2c(NCc3cccc(C(F)(F)F)c3)nc(NCCN(C)C)nc21 (stereo not given) (10 µM)
inactive: [1] 0 | [2] 0 | [3] 0 | [4] 0 | [5] 0 | [6] 0 | [7] 0 | [8] 0 | [9] 0 | [10] 0

O=S(=O)(c1ccc(O)cc1O)N1Cc2cc(O)cc(O)c2C1 (10 µM)
inactive: [1] 0 | [2] 0 | [3] 0 | [4] 0 | [5] 0 | [6] 0 | [7] 0 | [8] 0 | [9] 0 | [10] 0

COc1cccc(-c2cc(=O)c3ccccc3o2)c1N (10 µM)
inactive: [1] 0 | [2] 0 | [3] 0 | [4] 0 | [5] 0 | [6] 0 | [7] 0 | [8] 0 | [9] 0 | [10] 0

CN(C)CCOc1cc(-c2cn[nH]c2)ccc1NC(=O)C1COc2ccccc2O1 (stereo not given) (10 µM)
inactive: [1] 0 | [2] 0 | [3] 0 | [4] 0 | [5] 0 | [6] 0 | [7] 0 | [8] 0 | [9] 0 | [10] 0

COC(=O)N1CCN(C2CCC(Nc3nc(Nc4cnn(C)c4)nc4ccc(CC#N)nc34)CC2)CC1 (stereo not given) (10 µM)
inactive: [1] 0 | [2] 0 | [3] 0 | [4] 0 | [5] 0 | [6] 0 | [7] 0 | [8] 0 | [9] 0 | [10] 0

O=C(Nc1ccccc1C(=O)NC1CCCCNC1=O)c1cc2ccccc2s1 (stereo not given) (10 µM)
inactive: [1] 0 | [2] 0 | [3] 0 | [4] 0 | [5] 0 | [6] 0 | [7] 0 | [8] 0 | [9] 0 | [10] 0

Cc1cnc(Nc2ccc(F)cc2Cl)nc1-c1c[nH]c(C(=O)N[C@H](CO)c2cccc(Cl)c2)c1 (10 µM)
inactive: [1] 0 | [2] 0 | [3] 0 | [4] 0 | [5] 0 | [6] 0 | [7] 0 | [8] 0 | [9] 0 | [10] 0

CCc1c(C(=O)NNC(=O)[C@H](O)c2cc(F)cc(F)c2)ccc(O)c1C (10 µM)
inactive: [1] 0 | [2] 0 | [3] 0 | [4] 0 | [5] 0 | [6] 0 | [7] 0 | [8] 0 | [9] 0 | [10] 0

Fc1ccc(-c2nc3n(c2-c2ccncc2)CCS3)cc1 (10 µM)
inactive: [1] 0 | [2] 0 | [3] 0 | [4] 0 | [5] 0 | [6] 0 | [7] 0 | [8] 0 | [9] 0 | [10] 0

CC(C)Cn1ncc2cc(Oc3ccc(F)cc3F)c(C(=O)NCCN(C)C)cc21 [p38α inhibitor 1] (10 µM)
inactive: [1] 0 | [2] 0 | [3] 0 | [4] 0 | [5] 0 | [6] 0 | [7] 0 | [8] 0 | [9] 0 | [10] 0

CCCCNc1ncc2c(-c3ccc(F)cc3)nn(CC3CCC(N)CC3)c2n1 (stereo not given) (2.5 µM)
inactive: [1] 0 | [2] 0 | [3] 0 | [4] 0 | [5] 0 | [6] 0 | [7] 0 | [8] 0 | [9] 0 | [10] 0

CS(=O)(=O)c1cccc(CNc2nc(Nc3ccc4c(c3)CCC(=O)N4)ncc2C(F)(F)F)c1 (10 µM)
inactive: [1] 0 | [2] 0 | [3] 0 | [4] 0 | [5] 0 | [6] 0 | [7] 0 | [8] 0 | [9] 0 | [10] 0
